{
  "source": "paper PMC12581509",
  "binders": {"B1": {"name": "cLUC-HopH1 (HopH1 effector of Pseudomonas syringae pv. actinidiae M228) (protein, UniProt Q88A09 1-218)", "chain": "MITPSRYPGIYIAPLSNEPTAAHTFKEQAEEALDHISAAPSGDKLLRKISTLASQKDRKVTLKEIEINNQCYTEAVLSRRQLEKYEPENFNENRHIASQLSRKGTFTKGEGSNAIIGWSPDKASIRLNQNGSPLHLGMDNDDKITTLAHELVHARHVLGGSSLADGGDRYNPRTGSGKEELRAVGLDKYRYSLTKKPSENSIRAEHGLPLRMKYRAHQ"}},
  "key": {"[1]": {"target": "nLUC-AcZLP1 (Actinidia chinensis ZAR1-like protein 1) (Actinidia chinensis cv. Hongyang)", "assay": "split reporter; luciferase complementation assay (LCA): Agrobacterium strains carrying nLuc and cLuc constructs and P19 mixed 1:1:1, co-infiltrated into N. benthamiana leaves; substrate injected after two days, signal captured with a CCD camera; empty vectors as negative controls"}, "[2]": {"target": "nLUC-AeZLP1 (Actinidia eriantha ZAR1-like protein 1) (Actinidia eriantha cv. White)", "assay": "split reporter; luciferase complementation assay (LCA): Agrobacterium strains carrying nLuc and cLuc constructs and P19 mixed 1:1:1, co-infiltrated into N. benthamiana leaves; substrate injected after two days, signal captured with a CCD camera; empty vectors as negative controls"}},
  "note": "Results are given in words; binding and its absence hold for the method and conditions named. In cells and extracts the contact can be indirect. Binding calls can cover weak binding; strength is not graded here. Tags and fused reporters may be left off the sequences shown.",
  "data": [
    {"binder": "B1", "values": [
      {"measurement": "binding", "setting": "[1]", "value": "binds"},
      {"measurement": "binding", "setting": "[2]", "value": "binds"}
    ]}
  ]
}
